Measurements from PubChem BioAssay AID504467 (National Center for Advancing Translational Sciences (NCATS), 2011).
In all, about 330,000 compounds went through this assay and about 7,700 (2.3%) were called active. The shares of active, inactive and inconclusive entries below differ from those in the screen. Calls come from the whole dose curve; as a rule, active = well fitted inhibition curve with a large enough effect; inconclusive = small, poorly fitted or top-dose-only effect, or effect the other way; inactive = flat fitted curve, though single readings scatter. Potencies beside an inconclusive call are fits to weak or partial responses and may not hold up.

assay: qHTS screen for small molecules that inhibit ELG1-dependent DNA repair in human embryonic kidney (HEK293T) cells expressing luciferase-tagged ELG1; settings: HEK293T ELG1-luciferase reporter, luminescence, 16 h, DNA damage induced by 5-fluorouridine; activity change, negative = inhibition: at 46.1 µM (top of the series); note: nearly all actives have a fitted effect of over 55% in size
In short: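 DMSO vehicle served as the neutral condition. Each well held 2,000 cells given 5-fluorouridine plus compound; after 16 hr at 37 °C/5% CO2, ONE-Glo was added and luciferase measured 30 min later.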
% is set by controls: 0 for no effect and ±100 for the full control effect; potency is the fitted concentration of half-maximal effect.

Row | SMILES | Potency | activity change, negative = inhibition
1 | Nn1c(SCC(=O)NC2CCCCC2)nnc1-c1ccccc1F | inconclusive: 0.316 µM [inhibitor, partial curve, poor fit] | –
2 | Cc1nnc(SCc2cccc(CSc3nnc(C)s3)c2)s1 | inconclusive: 16.4 µM [activator, partial curve] | –
3 | O=C(N/N=C/c1ccco1)c1cc(-c2cccc3ccccc23)n[nH]1 | inconclusive: 32.6 µM [activator, partial curve, poor fit] | –
4 | CCC(c1nnnn1C1CCCC1)N1CCN(C(=O)c2ccco2)CC1 (centres undefined) | inconclusive: 29.1 µM [inhibitor, single point] | –
5 | O=C(COC(=O)[C@@H]1CC(O)CN1S(=O)(=O)c1ccccc1[N+](=O)[O-])c1ccccc1 (some centres undefined) | – | inactive: 7.1%
6 | O=C(COC(=O)Cc1ccc(S(=O)(=O)N2CCOCC2)s1)Nc1ccc(OC(F)F)cc1 | inconclusive: 1.83 µM [inhibitor, partial curve, poor fit] | –
7 | O=S(=O)(c1ccc2c(c1)OCCO2)N1CCC(n2cnc3cc(F)ccc32)CC1 | inconclusive: 9.2 µM [inhibitor, partial curve] | –
8 | CCOC(=O)C1(Cc2ccc(Cl)cc2)CCN(Cc2cn(CC)nc2C)CC1 | inconclusive: 23.1 µM [inhibitor, single point] | –
9 | Cc1ccsc1/C=N/Nc1ncc(Cl)cc1Cl | inconclusive: 2.31 µM [activator, partial curve] | –
10 | C=CCNC(=O)C1CCN(c2nc(C)cc(-c3ccccc3)n2)CC1 | inconclusive: 9.2 µM [activator, partial curve] | –
11 | O=C(c1ccc2nsnc2c1)N1CCN(c2ccc([N+](=O)[O-])cc2)CC1 | active: 16.4 µM | –
12 | CC1(C)OC(=O)C(=NNc2ccc(Br)cc2)C(=O)O1 | inconclusive: 29.1 µM [activator, single point] | –
13 | Cc1cc(C)c(C(=O)COC(=O)c2cccc(S(=O)(=O)NCc3ccccc3)c2)cc1C | inconclusive: 25.9 µM [inhibitor, single point] | –
14 | COc1cccc(C(=O)O/N=C(\N)c2ccncc2)c1OC | inconclusive: 16.4 µM [activator, partial curve, poor fit] | –
15 | COC(=O)Nc1ccc(S(=O)(=O)N2CCC(C(=O)N(C)C3CCCCC3)CC2)cc1 | – | inactive: -16.5%
16 | Cc1ccc(NC(=O)CSc2ncc3ccccn23)cc1C | inconclusive: 25.9 µM [activator, single point] | –
17 | CC(Sc1nnc(C2CC2)n1C1CC1)C(=O)NC1(C#N)CCCCC1 (centres undefined) | inconclusive: 23.1 µM [activator, partial curve, poor fit] | –
18 | Cc1cc(C)nc(N2CCCC(CCC(=O)NCc3ccc(F)c(F)c3)C2)n1 (centres undefined) | – | inactive: -16.7%
19 | O=C(C[n+]1ccc(/C=N/O)cc1)N(Cc1ccccc1)Cc1ccccc1 | inconclusive: 10.3 µM [inhibitor, partial curve] | –
20 | CN(C)c1nc(SCCOC(=O)Nc2ccccc2)nc(N(C)C)n1 | inconclusive: 25.9 µM [inhibitor, single point] | –
21 | O=C(CNC(=S)NC(=O)c1ccc(F)cc1)c1ccccc1 | – | inactive: 22.5%
22 | O=C(COC(=O)c1ccccc1-n1cnnn1)c1ccc(Br)cc1 | inconclusive: 20.6 µM [activator, single point] | –

Random excerpt: three entries already listed, in no set order.
Row | SMILES | Potency | activity change, negative = inhibition
8 | CCOC(=O)C1(Cc2ccc(Cl)cc2)CCN(Cc2cn(CC)nc2C)CC1 | inconclusive: 23.1 µM [inhibitor, single point] | –
22 | O=C(COC(=O)c1ccccc1-n1cnnn1)c1ccc(Br)cc1 | inconclusive: 20.6 µM [activator, single point] | –
4 | CCC(c1nnnn1C1CCCC1)N1CCN(C(=O)c2ccco2)CC1 (centres undefined) | inconclusive: 29.1 µM [inhibitor, single point] | –

The list continues:

Row | SMILES | Potency | activity change, negative = inhibition
23 | Cc1nc(-c2ccc(NC(=O)c3ccccc3)cc2)cs1 | inconclusive: 23.1 µM [inhibitor, partial curve, poor fit] | –
24 | CN(C)CCN(C(=O)c1ccc2c(c1)OCCO2)c1nc2ccc(Cl)cc2s1 | inconclusive: 2.06 µM [inhibitor, partial curve] | –
25 | O=C1NC(=Nc2ccccc2)S/C1=C/c1cccs1 | inconclusive: 18.3 µM [activator, partial curve] | –
26 | COC(=O)c1c(NC(=O)c2nc3ccccc3s2)sc2c1CC(C)(C)NC2(C)C | – | inactive: 3.41%
27 | O=C(COc1ccc([N+](=O)[O-])cc1)NCC(c1cccs1)N1CCOCC1 (centres undefined) | – | inactive: 4.4%
28 | Cc1ccc2[nH]cc(CCNC(=O)c3ccc4c(c3)OCO4)c2c1 | – | inactive: -2.26%
29 | Cc1ccc2c(c1)c(-c1csc(N)n1)c(C)n2C | – | inactive: -6.26%
30 | CNC(=O)c1ccsc1NC(=O)C1CCCN1S(=O)(=O)c1cccs1 (centres undefined) | – | inactive: -5.28%
31 | Cc1ccc(Nc2nc3c(s2)CCC3)c(C)c1 | inconclusive: 18.4 µM [activator, partial curve] | –
32 | COc1ccc(S(=O)(=O)N2CC(O)CC2C(=O)OCc2nc3sc(C)c(C)c3c(=O)[nH]2)cc1 (centres undefined) | – | inactive: -0.839%
33 | CC(C)(C)NC(=O)CN(C(=O)Cn1nnc(-c2ccc(Cl)cc2)n1)C1CCN(Cc2ccccc2)CC1 | – | inactive: -6.41%
34 | COc1ccccc1CNC(=O)c1cnn2c(C(F)F)cc(C)nc12 | active: 23.1 µM | –
35 | O=C(c1cc(-c2ccncc2)nc2ccccc12)N1CCN(S(=O)(=O)/C=C/c2ccccc2)CC1 | inconclusive: 16.4 µM [inhibitor, single point] | –
36 | O=C(O)c1ccc(/C=C2\COc3ccccc3C2=O)cc1 | inconclusive: 29.1 µM [inhibitor, single point] | –
37 | COc1ccc(NC(=O)N(CCc2ccccc2)Cc2cc3c(C)cc(C)cc3[nH]c2=O)cc1 | inconclusive: 10.3 µM [inhibitor, partial curve] | –
38 | Cc1cc(OCC(=O)N2CCc3ccccc3C2)c(C)cc1Br | inconclusive: 18.3 µM [activator, partial curve] | –
39 | N#Cc1sc2nc3c(c(-c4ccco4)c2c1N)CCCC3 | – | inactive: 0%
40 | O=C(CN1C(=O)NC2(CCc3ccccc32)C1=O)c1ccc(Cl)cc1 (centres undefined) | – | inactive: 1.57%
41 | O=C(Nc1ccc(C(F)(F)F)cc1)N1CCN(c2ccnc3cc(Cl)ccc23)CC1 | inconclusive: 29.1 µM [inhibitor, single point] | –
42 | Cc1cc(C(=O)N2CCN(c3cccc(Cl)c3)CC2)c(C)o1 | inconclusive: 18.4 µM [inhibitor, partial curve] | –
43 | CC1(CCc2ccccc2)NC(=O)N(CC(=O)Nc2ccc(OC(F)F)cc2)C1=O (centres undefined) | inconclusive: 18.3 µM [inhibitor, single point] | –
44 | COc1ccc(C2C(C(=O)c3ccco3)=C(O)C(=O)N2CCCn2ccnc2)c(OC)c1 (centres undefined) | inconclusive: 13 µM [activator, partial curve, poor fit] | –
